# Reference: patent US12076444B2, “Methods and systems for depositing active ingredients on substrates” (Purdue Research Foundation, priority 2015, dated 2024)
# For at least one compound, name, drawing or mass did not settle the structure.
# How the values were obtained:
# [1] = Recrystallization in buffer solution, optical microscopy; format: physicochemical; conditions: celecoxib from SEDDS deposits
# [2] = Raman microscopy of dosage forms; format: physicochemical; conditions: 90% gelucire 44/14 and 10% celecoxib melt dosage forms
# [3] = Dissolution testing in pH 6.8 10 mM phosphate buffer with HPLC; conditions: in 2 hours; 900 mL pH 6.8 buffer, 37° C., 100 rpm
structure (smiles),measurement,setting,value
Cc1ccc(-c2cc(C(F)(F)F)nn2-c2ccc(S(N)(=O)=O)cc2)cc1 [celecoxib],Time to recrystallization after deposits are dissolved in buffer solution,[1],5 min
same,Physical form of the drug in the dosage forms (Raman),[2],amorphous
same,Release,[3],22%
